From paper doi:10.1101/2020.05.10.086702 come the findings set out here.

Assay [1] addresses T1, Cep57L1 (centrosomal protein 57 kDa-like protein 1), full length, FLAG-tagged (human) (UniProt Q8IYX8).
T1 sequence: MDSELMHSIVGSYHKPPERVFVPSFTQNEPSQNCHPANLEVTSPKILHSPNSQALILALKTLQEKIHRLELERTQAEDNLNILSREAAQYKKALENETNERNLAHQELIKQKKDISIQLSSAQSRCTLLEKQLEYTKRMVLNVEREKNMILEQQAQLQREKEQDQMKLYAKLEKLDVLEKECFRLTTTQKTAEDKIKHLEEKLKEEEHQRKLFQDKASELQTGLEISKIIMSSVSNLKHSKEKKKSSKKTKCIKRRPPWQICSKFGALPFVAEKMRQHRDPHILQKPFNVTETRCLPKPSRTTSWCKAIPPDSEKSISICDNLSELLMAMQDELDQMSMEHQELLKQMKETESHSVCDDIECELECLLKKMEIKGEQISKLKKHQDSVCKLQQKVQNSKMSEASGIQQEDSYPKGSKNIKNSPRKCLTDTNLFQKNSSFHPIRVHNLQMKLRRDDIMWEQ
In words: co-IP.

In assay [2] the target is T2, Cep57L1 mutant lacking the PINC motif (Δ52-86 a.a.), FLAG-tagged (human) (UniProt Q8IYX8).
T2 sequence: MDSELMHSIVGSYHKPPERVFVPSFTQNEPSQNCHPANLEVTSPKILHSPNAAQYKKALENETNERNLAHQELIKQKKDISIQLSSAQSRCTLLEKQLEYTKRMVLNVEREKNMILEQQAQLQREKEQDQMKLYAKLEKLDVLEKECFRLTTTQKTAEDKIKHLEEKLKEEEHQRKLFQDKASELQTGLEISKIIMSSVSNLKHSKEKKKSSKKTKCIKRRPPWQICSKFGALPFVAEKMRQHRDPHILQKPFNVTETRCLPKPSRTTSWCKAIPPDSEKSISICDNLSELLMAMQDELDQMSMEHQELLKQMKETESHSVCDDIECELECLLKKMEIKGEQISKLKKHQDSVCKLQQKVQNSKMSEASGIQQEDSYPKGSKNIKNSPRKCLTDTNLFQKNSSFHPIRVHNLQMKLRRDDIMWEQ
As to the kind of experiment: co-IP.

These are yes or no findings as the source states them, for the method shown. In cells and extracts the contact can be indirect. Some binding calls cover weakened binding; strength is not graded here. Sequences can lack the tags named with a protein.

B1: GFP-PCNT (3132-3336 a.a.), C-terminal region of pericentrin containing the PACT domain (domain or fragment, UniProt O95613 3132-3336)
chain: MEKLYLHYLRAESFRKALIYQKKYLLLLIGGFQDSEQETLSMIAHLGVFPSKAERKITSRPFTRFRTAVRVVIAILRLRFLVKKWQEVDRKGALAQGKAPRPGPRARQPQSPPRTRESPPTRDVPSGHTRDPARGRRLAAAASPHSGGRATPSPNSRLERSLTASQDPEHSLTEYIHHLEVIQQRLGGVLPDSTSKKSCHPMIKQ
B1: the binding result in assay [1] and in assay [2] was “binds” in each case.

B2: Cep57L1 (centrosomal protein 57 kDa-like protein 1), full length, FLAG-tagged (protein, UniProt Q8IYX8-1 1-460)
chain: T1 sequence
With B2, the binding result in assay [1] is reported as “binds”.
